According to patent publication US20130231309A1, “TREATMENT OF INFLAMMATION AND ORGAN DYSFUNCTION” (THE REGENTS OF THE UNIVERSITY OF CALIFORNIA, priority 2005, published 2013):
At least one structure is not confirmed: it was looked up by name or label, or the drawing left a doubt.

What was measured:
[1] = WKY and SHR central hemodynamics (arterial blood pressure via femoral artery catheter, heart rate) after chronic doxycycline; format: in vivo, rat
Procedure: Selected WKY and SHR were treated with doxycycline (55 mg/liter in drinking water, average consumption ˜5.4 mg/kg/day, West-Ward Pharmaceutical Corp., Eatontown, N.J.) for a period of 24 weeks. It should be noted that lower and higher concentrations are also effective. A range of effective does of about 1.0-20.0 mg/kg/day, resulting from the dissolution of about 5.5-220 mg of an MMP inhibitor per liter, may also be used to produce an effective result. Narrower ranges of MMP solute may also be used, for example, 75-180 mg, and 100 mg-150 mg. The ileocecal portion of the mesentery was prepared as described in Delano and Schmid-Schonbein, “The Glucocorticoid and Mineralocorticoid Receptor Distribution in a Microvascular Network of the Spontaneously Hypertensive Rat.” Briefly, arterial blood pressure was recorded via a femoral artery catheter. Individual sectors of mesentery were exposed via an abdominal midline incision while superfused with Krebs-Henseleit buffer (37° C., pH=7.4). The blood pressure of WKY and SHR was reduced by doxycycline treatment as shown below in Table 1, a trend that was detectable in terms of systolic, diastolic or mean blood pressure. […]

[2] = system: MMP-1 (collagenase-1) and MMP-9 (gelatinase B); experiment: In-vivo zymography of mesentery with fluorogenic substrate; conditions: both rat strains, doxycycline treatment, FIG. 3A/3B
Procedure: Measurement of MMP-1,9 activity was obtained by superfusion of the mesentery with fluorogenic substrate (0.5 μmol/L; catalogue number D2293, Sigma-Aldrich Inc., St. Louis, Mo.) added to the suffusate. The substrate was cleaved by MMP-1 (collagenase-1) and MMP-9 (gelatinase B). The mesentery was loaded with substrate 10 minutes prior to image collection and continuously suffused with substrate throughout the experiment. The associated fluorescence was visualized by epi-illumination at 280 nm passing through a 340 nm emission filter on a fluorescent intravital microscope (Leica), and recorded digitally for measurement of fluorescent intensity. Light intensity of the emitted fluorescent light was recorded in digital units (1-256) after subtraction of background intensity in the absence of the tissue with standardized microscope settings. Reproducibility of these measurements as determined by repeated measurements on the same specimen was within 3%.

NFκ-B = NFκ-B immunohistochemistry in SHR leukocytes; format: in vivo, rat; conditions: 24 week doxycycline treatment, FIG. 8B
[3] = system: oxygen free radical formation; experiment: TNBT labeling for superoxide formation in mesentery microcirculation; format: in vivo, rat; conditions: SHR, also WKY; FIG. 5A/5B
insulin receptor α = experiment: Insulin receptor α extracellular domain labeling on fresh leukocytes; format: in vivo, rat; conditions: both WKY and SHR, FIG. 6B
[4] = system: apoptotic cells in thymus, kidney, skeletal muscle; experiment: Apoptosis by TUNEL / propidium iodide labeling of frozen tissue sections; format: in vivo, rat; conditions: SHR, chronic doxycycline
Procedure: A subsequent study was performed to consider the reduction of cell apoptosis after chronic MMP inhibition. In addition to the dramatic reduction of blood pressure, free radical production, membrane receptor cleavage and other pathophysiological parameters (described elsewhere) that point towards organ injury in the SHR, cell apoptosis was also considered after MMP inhibition. […] For this purpose, a novel digital technique was introduced to determine nuclear fragmentation on freshly-harvested frozen tissue sections labeled for DNA breaks with the TUNEL technique and with propidium iodide (PI) for the detection of cell nuclei (see FIG. 9). […] PI-positive nuclei (B) are used to identify the total number of cells in the fields. Their image is superimposed on the bright field image of TUNEL-positive nuclei (dark brown color in A) to determine digitally the light absorption due to the TUNEL label (shown in green in panels C) and the level of apoptosis (C).

MMP-9 (gelatinase-B) = experiment: MMP-9 protein levels in mesentery microcirculation (immunolabel light absorption); format: in vivo, rat; conditions: both WKY and SHR, FIG. 2C
CD18 integrin = experiment: CD18 extracellular domain labeling on Wistar leukocytes exposed to WKY/SHR plasma; format: cell-based, rat; conditions: plasma of SHR with chronic doxycycline, FIG. 7B
MMP-9 = MMP-9 immunolabeling in circulating neutrophils (optical density); format: in vivo, rat; conditions: WKY and SHR, FIG. 1A/1B
[5] = system: plasma proteases (metallo-, serine, acid and sulfhydryl proteases); experiment: Plasma protease activity (fluorescent protease assay kit, Enzchek); format: in vivo, rat; conditions: FIG. 4
Procedure: Fresh plasma samples were frozen (−60 C) until measurements were taken. On the day of the experiment, the samples were unfrozen and tested simultaneously for overall protease activity with fluorescent protease assay kit (Enzchek, Cat #E-6638, Molecular Probes). The substrate was cleaved by a range of proteases (metallo-, serine, acid and sulfhydryl proteases). Protease activity was determined from fluorescent intensity after peptide cleavage (in fluorescent units). In another experiment, and in order to explore the utility of chronic protease inhibition, a group of mature normotensive Wistar Kyoto rats (as well as a cohort of spontaneously hypertensive rats) were treated with a broad acting metafloproteases inhibitor (doxycycline, 55 mg/liter in drinking water, average consumption ˜5.4 mg/kg/day) over a period of 12 weeks until the age of 30 weeks.

MMP 1, 2, 8 and 9 = conditions: cited from earlier work

C[C@H]1c2cccc(O)c2C(=O)C2=C(O)[C@]3(O)C(=O)C(C(N)=O)=C(O)[C@@H](N(C)C)[C@@H]3[C@@H](O)[C@@H]21 [doxycycline]
Effect on heart rates ([1]; MMP inhibition with doxycycline): not significantly affected | Effect on blood pressure (systolic, diastolic or mean) ([1]; doxycycline treatment): reduced | MMP activity in endothelial cells and fibroblasts of mesentery [2]: significant reduction | NFκ-B in cytoplasm and cellular nuclei of leukocytes (NFκ-B): significantly reduced | Free radical production in the mesentery microcirculation (NBT labeling) [3]: reduced | Levels of insulin receptor label on leukocytes (insulin receptor α): significantly enhanced | Cell apoptosis in thymus [4]: greatly attenuated | MMP 9 protein levels in mesentery after treatment (MMP-9 (gelatinase-B)): decreased significantly | Amount of CD18 integrins on leukocytes exposed to plasma (CD18 integrin): normalizes | MMP-9 levels in neutrophils after treatment (MMP-9): fell to average values without significant differences between strains | Plasma protease activity ([5]; SHR): dramatically reduced | Plasma protease activity ([5]; WKY rats): also reduced | Inhibition of MMPs (MMP 1, 2, 8 and 9): inhibits
